The text below walks through data of patent US9625458B2, “Biosensor” (priority 2002, dated 2017).

This series can be described thus: Fluorescence emission spectra without and with saturating ligand (wavelength shift, ΔIstd, ΔRmax). As to conditions: for λmax,apo (nm) / λmax,sat (nm): emission maximum; for λmax,apo (nm): absence of ligand; for λmax,sat (nm): saturating ligand (ligand column); for ΔIstd: standard intensity change; for ΔIstd / ΔRmax: unbound vs ligand-saturated; for ΔRmax: standard ratiometric change. Here is the method:
Fluorimetry. All measurements were conducted with an SLM Aminco-Bowman series 2 fluorimeter, with sample stirring at 25° C. Fluorescence emission spectra were acquired with excitation and emission slit widths of 4 and 8 nm, respectively. Photomultiplier tube potential was maintained between 400 and 800 volts. Protein concentrations were in the range of 50 to 1000 nM. Fluorophore-specific excitation was at the following approximate wavelengths: tryptophan, 290 nm; acrylodan, 390 nm; fluorescein, 485 nm; pyrene, 340 nm; NBD and NBDE, 490 nm; JPW4039, 485 nm; JPW4042, 470 nm; JPW4045, 470 nm.
Assessment of fluorescent biosensor function. Fluorescence emission spectra of bPBP-fluorophore conjugates were recorded in the absence and presence of saturating ligand concentrations. Spectral changes were characterized by four parameters: wavelength shift (the difference between the wavelengths of emission maximum in the unbound and ligand-saturated states), direction of intensity change (increase or decrease in intensity at the wavelengths of maximum emission in the two states), standard intensity change (ΔIstd), and standard ratiometric change (ΔR). ΔIstd is defined as the normalized intensity change relative to the average intensity, determined at the wavelength mid-point between the two emission maxima:
[formula] where λstd=(λmax, unbound+λmax, saturated)/2 and I1, I2 are the fluorescence intensities at λstd of each spectrum respectively (FIG. 4A). ΔR is defined in terms of two emission bands, A1 ([λ1, λ2]) and A2 ([λ3, λ4]) (FIG. 4B):
[formula] where ^∘A1, […] the areas in the absence of ligand, and ^∞A1, ^∞A2 the areas in the presence of saturating ligand. A computer program was used to enumerate ΔR for all possible pairs of wavelength bands in the two spectra, to identify the optimal sensing condition, defined as the maximum value of ΔR. Adjustable parameters of the algorithm, and their values used for ΔRmax quantities reported here, are: step size (2 nm), step width (10 nm), minimum integration area limit (fraction of total: 0.1), and maximum integration area limit (fraction of total: 1).

B1: Fe(III) BP E203C-acrylodan (conjugate, UniProt P35755 24-332, looked up, variant E203C)
Iron-utilization periplasmic …: DITVYNGQHKEAATAVAKAFEQETGIKVTLNSGKSEQLAGQLKEEGDKTPADVFYTEQTATFADLSEAGLLAPISEQTIQQTAQKGVPLAPKKDWIALSGRSRVVVYDHTKLSEKDMEKSVLDYATPKWKGKIGYVSTSGAFLEQVVALSKMKGDKVALNWLKGLKENGKLYAKNSVALQAVENGEVPAALINNYYWYNLAKCKGVENLKSRLYFVRHQDPGALVSYSGAAVLKASKNQAEAQKFVDFLASKKGQEALVAARAEYPLRADVVSPFNLEPYEKLEAPVVSATTAQDKEHAIKLIEEAGLK
modifications: acrylodan label
For the molecule B1, the “ΔIstd (standard intensity change)” value (apo vs saturating ligand at λstd) is recorded as 0.4.

B2: Fe(III) BP K85C JPW4039 (conjugate, UniProt P35755 24-332, looked up, variant K85C)
Iron-utilization periplasmic …: DITVYNGQHKEAATAVAKAFEQETGIKVTLNSGKSEQLAGQLKEEGDKTPADVFYTEQTATFADLSEAGLLAPISEQTIQQTAQCGVPLAPKKDWIALSGRSRVVVYDHTKLSEKDMEKSVLDYATPKWKGKIGYVSTSGAFLEQVVALSKMKGDKVALNWLKGLKENGKLYAKNSVALQAVENGEVPAALINNYYWYNLAKEKGVENLKSRLYFVRHQDPGALVSYSGAAVLKASKNQAEAQKFVDFLASKKGQEALVAARAEYPLRADVVSPFNLEPYEKLEAPVVSATTAQDKEHAIKLIEEAGLK
modifications: JPW4039 dye label
In the case of B2, the “λmax,apo (nm)” value was found to be 593, the “λmax,sat (nm)” value is given as 591, the ΔIstd worked out at 0.05 and the ΔRmax is 0.10.

B3: Fe(III) BP K85C JPW4042 (conjugate, UniProt P35755 24-332, looked up, variant K85C)
Iron-utilization periplasmic …: DITVYNGQHKEAATAVAKAFEQETGIKVTLNSGKSEQLAGQLKEEGDKTPADVFYTEQTATFADLSEAGLLAPISEQTIQQTAQCGVPLAPKKDWIALSGRSRVVVYDHTKLSEKDMEKSVLDYATPKWKGKIGYVSTSGAFLEQVVALSKMKGDKVALNWLKGLKENGKLYAKNSVALQAVENGEVPAALINNYYWYNLAKEKGVENLKSRLYFVRHQDPGALVSYSGAAVLKASKNQAEAQKFVDFLASKKGQEALVAARAEYPLRADVVSPFNLEPYEKLEAPVVSATTAQDKEHAIKLIEEAGLK
modifications: JPW4042 dye label
Consider B3, for which the “λmax,apo (nm)” value was found to be 638, the “λmax,sat (nm)” value turned out to be 641, the ΔIstd was 0.03 and the ΔRmax was found to be 0.28.

B4: Fe(III) BP E203C Acrylodan (conjugate, UniProt P35755 24-332, looked up, variant E203C)
Iron-utilization periplasmic …: DITVYNGQHKEAATAVAKAFEQETGIKVTLNSGKSEQLAGQLKEEGDKTPADVFYTEQTATFADLSEAGLLAPISEQTIQQTAQKGVPLAPKKDWIALSGRSRVVVYDHTKLSEKDMEKSVLDYATPKWKGKIGYVSTSGAFLEQVVALSKMKGDKVALNWLKGLKENGKLYAKNSVALQAVENGEVPAALINNYYWYNLAKCKGVENLKSRLYFVRHQDPGALVSYSGAAVLKASKNQAEAQKFVDFLASKKGQEALVAARAEYPLRADVVSPFNLEPYEKLEAPVVSATTAQDKEHAIKLIEEAGLK
modifications: acrylodan label
For B4, the “λmax,apo (nm)” value was found to be 518, the “λmax,sat (nm)” value is on record as 518, the ΔIstd was determined as 0.41 and the ΔRmax stood at 0.95.

B5: Fe(III) BP K202C Acrylodan (conjugate, UniProt P35755 24-332, looked up, variant K202C)
Iron-utilization periplasmic …: DITVYNGQHKEAATAVAKAFEQETGIKVTLNSGKSEQLAGQLKEEGDKTPADVFYTEQTATFADLSEAGLLAPISEQTIQQTAQKGVPLAPKKDWIALSGRSRVVVYDHTKLSEKDMEKSVLDYATPKWKGKIGYVSTSGAFLEQVVALSKMKGDKVALNWLKGLKENGKLYAKNSVALQAVENGEVPAALINNYYWYNLACEKGVENLKSRLYFVRHQDPGALVSYSGAAVLKASKNQAEAQKFVDFLASKKGQEALVAARAEYPLRADVVSPFNLEPYEKLEAPVVSATTAQDKEHAIKLIEEAGLK
modifications: acrylodan label
As to B5, the “λmax,apo (nm)” value is given as 505, the “λmax,sat (nm)” value is 503, the ΔIstd is 0.37 and the ΔRmax is reported as 1.17.

B6: Fe(III) BP E203C Fluorescein (conjugate, UniProt P35755 24-332, looked up, variant E203C)
Iron-utilization periplasmic …: DITVYNGQHKEAATAVAKAFEQETGIKVTLNSGKSEQLAGQLKEEGDKTPADVFYTEQTATFADLSEAGLLAPISEQTIQQTAQKGVPLAPKKDWIALSGRSRVVVYDHTKLSEKDMEKSVLDYATPKWKGKIGYVSTSGAFLEQVVALSKMKGDKVALNWLKGLKENGKLYAKNSVALQAVENGEVPAALINNYYWYNLAKCKGVENLKSRLYFVRHQDPGALVSYSGAAVLKASKNQAEAQKFVDFLASKKGQEALVAARAEYPLRADVVSPFNLEPYEKLEAPVVSATTAQDKEHAIKLIEEAGLK
modifications: fluorescein label
In the case of B6, the “λmax,apo (nm)” value was 523, the “λmax,sat (nm)” value is reported as 522, the ΔIstd amounted to 0.33 and the ΔRmax is recorded as 0.15.

B7: Fe(III) BP K202C JPW4039 (conjugate, UniProt P35755 24-332, looked up, variant K202C)
Iron-utilization periplasmic …: DITVYNGQHKEAATAVAKAFEQETGIKVTLNSGKSEQLAGQLKEEGDKTPADVFYTEQTATFADLSEAGLLAPISEQTIQQTAQKGVPLAPKKDWIALSGRSRVVVYDHTKLSEKDMEKSVLDYATPKWKGKIGYVSTSGAFLEQVVALSKMKGDKVALNWLKGLKENGKLYAKNSVALQAVENGEVPAALINNYYWYNLACEKGVENLKSRLYFVRHQDPGALVSYSGAAVLKASKNQAEAQKFVDFLASKKGQEALVAARAEYPLRADVVSPFNLEPYEKLEAPVVSATTAQDKEHAIKLIEEAGLK
modifications: JPW4039 dye label
For B7, the “λmax,apo (nm)” value is given as 602, the “λmax,sat (nm)” value came out at 602, the ΔIstd is 0.24 and the ΔRmax was 0.36.

B8: Fe(III) BP K202C Fluorescein (conjugate, UniProt P35755 24-332, looked up, variant K202C)
Iron-utilization periplasmic …: DITVYNGQHKEAATAVAKAFEQETGIKVTLNSGKSEQLAGQLKEEGDKTPADVFYTEQTATFADLSEAGLLAPISEQTIQQTAQKGVPLAPKKDWIALSGRSRVVVYDHTKLSEKDMEKSVLDYATPKWKGKIGYVSTSGAFLEQVVALSKMKGDKVALNWLKGLKENGKLYAKNSVALQAVENGEVPAALINNYYWYNLACEKGVENLKSRLYFVRHQDPGALVSYSGAAVLKASKNQAEAQKFVDFLASKKGQEALVAARAEYPLRADVVSPFNLEPYEKLEAPVVSATTAQDKEHAIKLIEEAGLK
modifications: fluorescein label
B8: the “λmax,apo (nm)” value was found to be 520, the “λmax,sat (nm)” value stood at 521, the ΔIstd is on record as 0.30 and the ΔRmax is on record as 0.09.

B9: Fe(III) BP E203C JPW4039 (conjugate, UniProt P35755 24-332, looked up, variant E203C)
Iron-utilization periplasmic …: DITVYNGQHKEAATAVAKAFEQETGIKVTLNSGKSEQLAGQLKEEGDKTPADVFYTEQTATFADLSEAGLLAPISEQTIQQTAQKGVPLAPKKDWIALSGRSRVVVYDHTKLSEKDMEKSVLDYATPKWKGKIGYVSTSGAFLEQVVALSKMKGDKVALNWLKGLKENGKLYAKNSVALQAVENGEVPAALINNYYWYNLAKCKGVENLKSRLYFVRHQDPGALVSYSGAAVLKASKNQAEAQKFVDFLASKKGQEALVAARAEYPLRADVVSPFNLEPYEKLEAPVVSATTAQDKEHAIKLIEEAGLK
modifications: JPW4039 dye label
With B9, the “λmax,apo (nm)” value was found to be 599, the “λmax,sat (nm)” value stood at 592, the ΔIstd was found to be 0.09 and the ΔRmax came to 0.37.

B10: Fe(III) BP E203C NBD (conjugate, UniProt P35755 24-332, looked up, variant E203C)
Iron-utilization periplasmic …: DITVYNGQHKEAATAVAKAFEQETGIKVTLNSGKSEQLAGQLKEEGDKTPADVFYTEQTATFADLSEAGLLAPISEQTIQQTAQKGVPLAPKKDWIALSGRSRVVVYDHTKLSEKDMEKSVLDYATPKWKGKIGYVSTSGAFLEQVVALSKMKGDKVALNWLKGLKENGKLYAKNSVALQAVENGEVPAALINNYYWYNLAKCKGVENLKSRLYFVRHQDPGALVSYSGAAVLKASKNQAEAQKFVDFLASKKGQEALVAARAEYPLRADVVSPFNLEPYEKLEAPVVSATTAQDKEHAIKLIEEAGLK
modifications: NBD label
B10: the “λmax,apo (nm)” value came to 550, the “λmax,sat (nm)” value was found to be 548, the ΔIstd worked out at 0.31 and the ΔRmax turned out to be 0.21.

B11: Fe(III) BP K85C Fluorescein (conjugate, UniProt P35755 24-332, looked up, variant K85C)
Iron-utilization periplasmic …: DITVYNGQHKEAATAVAKAFEQETGIKVTLNSGKSEQLAGQLKEEGDKTPADVFYTEQTATFADLSEAGLLAPISEQTIQQTAQCGVPLAPKKDWIALSGRSRVVVYDHTKLSEKDMEKSVLDYATPKWKGKIGYVSTSGAFLEQVVALSKMKGDKVALNWLKGLKENGKLYAKNSVALQAVENGEVPAALINNYYWYNLAKEKGVENLKSRLYFVRHQDPGALVSYSGAAVLKASKNQAEAQKFVDFLASKKGQEALVAARAEYPLRADVVSPFNLEPYEKLEAPVVSATTAQDKEHAIKLIEEAGLK
modifications: fluorescein label
As to B11, the “λmax,apo (nm)” value was 519, the “λmax,sat (nm)” value is listed as 520, the ΔIstd is 0.01 and the ΔRmax stood at 0.03.
